Data from US20240262915A1.
Results are given in words; binding and its absence hold for the method and conditions named. Some entries that bind do so weakly or less than the wild type.

By UniProt entry, the sequences of proteins in these tests, tags left out. Where a name states a change or a piece, a line headed by the entry shows the natural chain unless it says otherwise.
UniProt Q495A1: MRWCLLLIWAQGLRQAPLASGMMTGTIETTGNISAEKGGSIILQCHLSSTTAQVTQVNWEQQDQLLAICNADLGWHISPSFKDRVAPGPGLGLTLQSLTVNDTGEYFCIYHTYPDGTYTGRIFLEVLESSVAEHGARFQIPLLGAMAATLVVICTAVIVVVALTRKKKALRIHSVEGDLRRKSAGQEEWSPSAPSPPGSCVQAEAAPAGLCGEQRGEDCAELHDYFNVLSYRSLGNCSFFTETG
UniProt Q9NZQ7: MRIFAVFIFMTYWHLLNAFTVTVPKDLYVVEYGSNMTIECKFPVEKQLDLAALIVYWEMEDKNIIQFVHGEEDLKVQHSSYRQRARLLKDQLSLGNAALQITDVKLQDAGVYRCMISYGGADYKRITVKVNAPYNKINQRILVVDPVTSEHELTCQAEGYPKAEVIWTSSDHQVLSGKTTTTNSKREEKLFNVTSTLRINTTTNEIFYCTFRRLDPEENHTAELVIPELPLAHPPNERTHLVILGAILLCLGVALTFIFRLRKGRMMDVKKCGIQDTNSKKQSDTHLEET

Experiments:
[1] = target: TIGIT-his (extracellular region of human TIGIT protein fused with his) (human) (UniProt Q495A1); experiment: BLI, Fortebio Octet RED96
[2] = target: TIGIT-his (extracellular region of human TIGIT protein fused with his) (human) (UniProt Q495A1); experiment: ELISA, subclone supernatant, binding to TIGIT
[3] = target: PD-L1 molecules (ELISA antigen of Example 1) (human) (UniProt Q9NZQ7); experiment: ELISA, subclone supernatant, binding to PD-L1

| binding [1] | binding [3] | Binder | also measured |
| --- | --- | --- | --- |
| binds | – | SHS006-T-Hu23-53 (antibody, IgG4, V domains shown) VH: EVQLVESGGGLVQPGGSLRLSCAASGFTFSDHWMSWVRQAPGKTMEWIGNIQYDGSYTNYAPSLKNRFTISRDNAKNSLYLQMNSLRAEDTATYYCTRGHFRITMASMGASASVYWGQGTMVTVSS VL: DIQMTQSPSSLSASVGDRVTITCRTSQDIGNSLRWFQQKPGKAPKLLIHGATNLANGVPSRFSGSGSGTDFTLTISSLQPEDFATYYCLQHNEYPLTFGQGTKLEIK | – |
| – | binds | SHS009PL-18 (antibody, V domains shown) VH: QVQLQQPGAELVRPGTSVNLSCKASGYSFTSNWMNWVKQRPGQGLEWIGMIHLYDSETKLNPNFQDKATLTVDKSSSIAYMQLSSPTSEDSAVYYCARSAGNYRFAYWGQGTLVTVSA VL: SIVMTQTPKFLPVTAEDRVTITCKASQSVSNEVAWYQQKPGQSPKLLIYSASSRYTGVPDRFIGGGSATDFTFTISSVQVEDLAVYFCQQHYSSPLTFGAGTKLELK | – |
| – | binds | SHS009PL-16 (antibody, V domains shown) VH: QVQLQQSGAELARPGASVKMSCKASGYTFTRNTMHWIKQRPGQGLEWIGFIDPHNTYTRYNQKFKDRATLTADKSSSTAYMQLSSLSSEDSAVYYCARWPMDYWGQGTSVTVSS VL: DIVMTQFPSSLAVTAGEKVTMRCKSSQSLSWSENQNNYLSWYQQKQGQPPKLLIYGASIRESWVPDRFTGSGSGTDFTLTISNVHAEDLGVYFCQHNHGSFLPYTFGGGTKLEIK | – |
| – | binds | SHS009PL-15 (antibody, V domains shown) VH: EVQLQESGPGLAKPSQTLSLTCSVTGYSITSDYWNWIRKFPGNKLEYMGYISYTGSTYYNPSLKRRVSITRDTSKNNYYLQLNSVTTEDTATYYCARYRDWPGYFDVWGAGTTVTVSS VL: DVQITQSPSYLAASPGETITINCRASKSIRKFLAWYQEKPGKTNKLLIYSGSTLQSGIPSRFSGSGSGTDFTLTISTLEPEDFAVYYCQHYNEYPFTFGGGTKLEIK | – |

Further lines, the binder ahead of its results:

| Binder | binding [1] | binding [3] | also measured |
| --- | --- | --- | --- |
| SHS006-23 (antibody, V domains shown) VH: EVQLVESEGGLVQPGASVKLSCVGSGFSFSDHWMSWVRQTPGKTMEWIGNIQYDGSYTNYAPSLKNRFTISRDNAKNTLYLQMTNLRSEDTATYYCTRGHFRITMASMGASASVYWGQGVMVTVSS VL: DIQMTQSPSSLPTSLGDRVTITCRTSQDIGNSLRWFQQKPGKSPRLMIHGATNLANGVPSRFSGSRAGSDYSLTINSLESEDMAMYYCLQHNEYPLTFGSGTKLEIK | – | – | binding [2]: binds |
| HuPL1642-T2353-ScFab (bispecific antibody, human IgG4 S228P, kappa) chain 1: DIQMTQSPSSLSASVGDRVTITCRTSQDIGNSLRWFQQKPGKAPKLLIHGATNLANGVPSRFSGSGSGTDFTLTISSLQPEDFATYYCLQHNEYPLTFGCGTKLEIKRTVAAPSVFIFPPSDEQLKSGTASVVCLLNNFYPREAKVQWKVDNALQSGNSQESVTEQDSKDSTYSLSSTLTLSKADYEKHKVYACEVTHQGLSSPVTKSFNRGECGGGGSGGGGSGGGGSGGGGSGGGGSGGGGSGGGGSGGGGSEVQLVESGGGLVQPGGSLRLSCAASGFTFSDHWMSWVRQAPGKCMEWIGNIQYDGSYTNYAPSLKNRFTISRDNAKNSLYLQMNSLRAEDTATYYCTRGHFRITMASMGASASVYWGQGTMVTVSSASTKGPSVFPLAPCSRSTSESTAALGCLVKDYFPEPVTVSWNSGALTSGVHTFPAVLQSSGLYSLSSVVTVPSSSLGTKTYTCNVDHKPSNTKVDKRVESKYGPPCPPCPAPEFLGGPSVFLFPPKPKDTLMISRTPEVTCVVVDVSQEDPEVQFNWYVDGVEVHNAKTKPREEQFNSTYRVVSVLTVLHQDWLNGKEYKCKVSNKGLPSSIEKTISKAKGQPREPQVYTLPPCQEEMTKNQVSLWCLVKGFYPSDIAVEWESNGQPENNYKTTPPVLDSDGSFFLYSRLTVDKSRWQEGNVFSCSVMHEALHNHYTQKSLSLSLGK chain 2: DIVMTQSPDSLAVSLGERVTMRCKSSQSLSWSENQNNYLSWYQQKPGQPPKLLIYGASIRESGVPDRFSGSGSGTDFTLTISSVQAEDVGVYYCQHNHGSFLPYTFGCGTKLEIKRTVAAPSVFIFPPSDEQLKSGTASVVCLLNNFYPREAKVQWKVDNALQSGNSQESVTEQDSKDSTYSLSSTLTLSKADYEKHKVYACEVTHQGLSSPVTKSFNRGECGGGGSGGGGSGGGGSGGGGSGGGGSGGGGSGGGGSGGGGSQVQLVQSGAEVAKPGASVKMSCKASGYTFTRNTMHWIKQAPGQCLEWIGFIDPHNTYTRYNQKFKDRATLTADTSASTAYMELSSLRSEDTAVYYCARWPMDYWGQGTLVTVSSASTKGPSVFPLAPCSRSTSESTAALGCLVKDYFPEPVTVSWNSGALTSGVHTFPAVLQSSGLYSLSSVVTVPSSSLGTKTYTCNVDHKPSNTKVDKRVESKYGPPCPPCPAPEFLGGPSVFLFPPKPKDTLMISRTPEVTCVVVDVSQEDPEVQFNWYVDGVEVHNAKTKPREEQFNSTYRVVSVLTVLHQDWLNGKEYKCKVSNKGLPSSIEKTISKAKGQPREPQVCTLPPSQEEMTKNQVSLSCAVKGFYPSDIAVEWESNGQPENNYKTTPPVLDSDGSFFLVSRLTVDKSRWQEGNVFSCSVMHEALHNHYTQKSLSLSLGK | binds | – | – |
| SHS006-17 (antibody, V domains shown) VH: QVTLKESGPGILQPSQTLSLTCTFSGFSLRTYGLGVGWIRQLSGKGLEWLANIWWDDDEYYNPSLKNRLTISKDTSNNQAFLKITNVDTADTATYYCARIARPHYYWDGRYILDVWGQGASVTVSS VL: DIMMTQSPLSVAVTPGESASISCRSSKSLLHSNGITYLSWYLQRPEKSPQLLIFQISNLASGVSDRFSGSGSGTDFTLIISKVETEDVGIYYCMQFLEVPYTFGAGTKLELK | – | – | binding [2]: binds |
| SHS006-T-Hu17-31 (antibody, IgG4, V domains shown) VH: QVTLKESGPVLVKPTETLTLTCTFSGFSLRTYGLGVGWIRQPPGKALEWLANIWWDDDEYYNPSLKNRLTISKDTSKSQAVLTMTNMDPVDTATYYCARIARPHYYWDGRYILDVWGQGTTVTVSS VL: DIVMTQSPLSLPVTPGEPASISCRSSKSLLHSNGITYLSWYLQKPGQSPQLLIYQISNLASGVPDRFSGSGSGTDFTLKISRVEAEDVGVYYCMQFLEVPYTFGQGTKLEIK | binds | – | – |
